The nature of this series: general procedure: Fmoc solid-phase peptide synthesis; 2-chlorotrityl chloride resin (Iris Biotech), 0.85 mmol/g; TBTU/DIEA.
[1] abbreviates: cyclisation step, trifluoroacetate.
The mark [2] stands for this setting: late stage modification step, trifluoroacetate.
Setting [3] is: coupling step, trifluoroacetate.

Turning to “[3-tert-Butyl-D-alanyl]-[3-tert-butyl-L-alanyl]-[(3R)-3-amino-L-phenylalanyl]-[(3R)-3-hydroxy-L-leucyl]-L-leucyl-D-arginyl-[3-trimethylsilyl-L-alanlyl]-L-allothreonyl-glycyl-L-seryl-L-serine C^1.11-N^3.3-lactam”, under “late stage modification step, from compound 439A, trifluoroacetate”, the step yield was 26% of theory. Consider “[(3R)-N^2-(Benzyloxycarbonyl)-3-amino-L-phenylalanyl]-[(3R)-3-hydroxy-L-leucyl]-L-leucyl-D-arginyl-L-phenylalanlyl-L-allothreonyl-glycyl-L-seryl-L-serine C^1.9-N^3.1-lactam trifluoroacetate”, for which the cyclisation yield (cyclisation step, from 368A, trifluoroacetate) is listed as 76% of theory. Regarding “[(3R)-N^2-(Benzyloxycarbonyl)-3-amino-L-phenylalanyl]-[(3R)-3-hydroxy-L-leucyl]-L-leucyl-D-arginyl-L-isoleucyl-L-leucyl-glycyl-L-seryl-L-serine C^1.9-N^3.1-lactam trifluoroacetate”, the cyclisation yield (cyclisation step, from 377A, trifluoroacetate) is reported as 97% of theory. On to “[(3R)-N^2-(Benzyloxycarbonyl)-3-amino-L-phenylalanyl]-[(3R)-3-hydroxy-L-leucyl]-L-leucyl-D-arginyl-L-isoleucyl-L-allothreonyl-glycyl-[3-(3-pyridyl)-L-alanyl]-L-serine C^1.9-N^3.1-lactam trifluoroacetate”, for which the cyclisation yield under setting [1] was 51% of theory. As for “[(3R)-N^2-(Benzyloxycarbonyl)-3-amino-L-phenylalanyl]-[(3R)-3-hydroxy-L-leucyl]-L-leucyl-D-arginyl-L-isoleucyl-L-allothreonyl-glycyl-[(3S)-3-hydroxy-L-asparaginyl]-L-alanine bistrifluoroacetate”, the step yield (late stage modification step, bistrifluoroacetate) was 99% of theory. Regarding “[(3R)-N^2-(Benzyloxycarbonyl)-3-amino-3-(pyridin-3-yl)-L-alanyl]-[(3R)-3-hydroxy-L-leucyl]-L-leucyl-D-arginyl-L-isoleucyl-L-allothreonyl-glycyl-[(3R)-3-hydroxy-L-asparaginyl]-L-serine C^1.9-N^3.1-lactam bis-trifluoroacetate”, the cyclisation yield under setting [1] is 61% of theory. Regarding “{(3R)-N^2-[(9H-Fluoren-9-ylmethoxy)carbonyl]-3-amino-L-phenylalanyl}-[(3R)-3-hydroxy-L-leucyl]-L-leucyl-(N^5-benzyloxycarbonyl-D-ornithyl)-L-isoleucyl-L-allothreonyl-glycyl-L-seryl-L-serine C^1.9-N^3.1-lactam trifluoroacetate”, the cyclisation yield (cyclisation step, from 376A, trifluoroacetate) was 48% of theory. Under setting [1], the “final purity (method not given)” value is reported as 50% pure. Regarding “[3-tert-Butyl-D-alanyl]-[3-tert-butyl-L-alanyl]-[(3R)-3-amino-O-methyl-L-tyrosyl]-[(3R)-3-hydroxy-L-leucyl]-L-leucyl-D-arginyl-L-isoleucyl-L-allothreonyl-glycyl-[(3S)-3-hydroxy-L-asparaginyl]-L-serine C^1.11-N^3.3-lactam bistrifluoroacetate”, the step yield under setting [2] is recorded as 75% of theory.

For “[N^2-(tert.-Butoxycarbonyl)-3-tert-butyl-D-alanyl]-[(3R)-3-amino-L-phenylalanyl]-[(3R)-3-hydroxy-L-leucyl]-L-leucyl-D-arginyl-L-isoleucyl-L-allothreonyl-glycyl-L-allothreonyl-L-serinate C^1.11-N^3.3-lactam hydrochloride”, under “coupling step, hydrochloride”, the “purity (crude or final not stated)” value is “purity 77%” and the step yield is 69% of theory.

Consider “{(3R)-N^2-[(9H-Fluoren-9-ylmethoxy)carbonyl]-3-amino-L-phenylalanyl}-[(3R)-3-hydroxy-L-leucyl]-L-leucyl-(N^6-benzyloxycarbonyl-D-lysyl)-L-isoleucyl-L-allothreonyl-glycyl-L-seryl-L-serine C^1.9-N^3.1-lactam trifluoroacetate”, for which the cyclisation yield (cyclisation step, from 379A, trifluoroacetate) is 78% of theory. Under setting [1], the “final purity (method not given)” value is reported as 64% pure. Take “Benzyl [(3R)-N^2-(tert-butoxycarbonyl)-3-hydroxy-L-leucyl]-L-leucyl-D-arginyl-L-isoleucyl-L-allothreonyl-glycyl-[(3S)-3-hydroxy-L-asparaginyl]-L-alaninate trifluoroacetate”: the step yield under setting [3] is listed as 95% of theory. For “[(3R)-3-Hydroxy-L-leucyl]-L-leucyl-D-arginyl-L isoleucyl-L-allothreonyl-D-seryl-L-seryl-L-serine bistrifluoroacetate”, the “final purity (method not given)” value under setting [2] worked out at 33% pure.

Consider “[(3R)-3-Hydroxy-L-leucyl]-L-leucyl-(N^6-benzyloxycarbonyl-D-lysyl)-L-isoleucyl-L-allothreonyl-glycyl-L-seryl-L-serine bistrifluoroacetate”, for which the “purity (crude or final not stated)” value under setting [2] is reported as 58% pure. Take “[(3R)-N^2-(Benzyloxycarbonyl)-3-amino-L-phenylalanyl]-[(3R)-3-hydroxy-L-leucyl]-L-leucyl-D-arginyl-L-isoleucyl-L-allothreonyl-glycyl-L-alanyl-L-serine C^1.9-N^3.1-lactam trifluoroacetate”: the cyclisation yield under setting [1] is given as 77% of theory. Consider “[(3R)-3-Amino-L-leucyl]-[(3R)-3-hydroxy-L-leucyl]-L-leucyl-D-arginyl-L-isoleucyl-L-allothreonyl-glycyl-[(3R)-3-hydroxy-L-asparaginyl]-L-serine C^1.9-N^3.1-lactam bishydrochloride”, for which the step yield (late stage modification step, of theory from 394A, trifluoroacetate) is 96% of theory. Consider “[N^2-(tert-Butoxycarbonyl)-3-tert-butyl-D-alanyl]-[3-tert-butyl-L-alanyl]-[(3R)-3-amino-L-phenylalanyl]-[(3R)-3-hydroxy-L-leucyl]-L-leucyl-D-arginyl-L-isoleucyl-L-allothreonyl-glycyl-L-phenylalanyl-L-serine C^1.11-N^3.3-lactam Hydrochloride”, for which, for the setting “coupling step, hydrochloride”, the step yield was 62% of theory. Turning to “[(3R)-3-Amino-L-phenylalanyl]-[(3R)-3-hydroxy-L-leucyl]-L-leucyl-D-arginyl-L-phenylalanlyl-L-allothreonyl-glycyl-L-seryl-L-serine C^1.9-N^3.1-lactam bistrifluoroacetate”, the step yield (late stage modification step, of theory from 392A, trifluoroacetate) is 77% of theory. For the same substance, the “purity (crude or final not stated)” value under setting [2] was 71% pure. “Benzyl [(3R)-N^2-(tert-butoxycarbonyl)-3-hydroxy-L-leucyl]-L-leucyl-D-arginyl-L-isoleucyl-L-allothreonyl-glycyl-L-asparaginyl-L-serinate trifluoroacetate”: the step yield under setting [3] is given as 31% of theory. Regarding “[(3R)-N^2-(tert-butoxycarbonyl)-3-hydroxy-L-leucyl]-L-leucyl-D-arginyl-L-isoleucyl-L-allothreonyl-glycyl-[3-(3-pyridyl)-L-alanyl]-L-serine bistrifluoroacetate”, the step yield under setting [2] was 88% of theory.

Consider “[(3R)-N^2-(tert-Butoxycarbonyl)-3-hydroxy-L-leucyl]-L-leucyl-D-arginyl-L-isoleucyl-L-allothreonyl-glycyl-[(3S)-3-hydroxy-L-asparaginyl]-L-alanine trifluoroacetate”, for which, under setting [2], the step yield was 98% of theory. Consider “[(3R)-N^2-(Benzyloxycarbonyl)-3-{(tert-butoxycarbonyl)amino}-L-phenylalanyl]-[(3R)-3-hydroxy-L-leucyl]-L-leucyl-D-arginyl-L-isoleucyl-L-seryl-glycyl-L-seryl-L-serine trifluoroacetate”, for which the step yield under setting [3] is listed as 30% of theory.

“[3-tert-Butyl-D-alanyl]-[3-tert-butyl-L-alanyl]-[(3R)-3-amino-L-phenylalanyl]-[(3R)-3-hydroxy-L-leucyl]-L-leucyl-D-arginyl-L-leucyl-L-allothreonyl-glycyl-L-seryl-L-serine C^1.11-N^3.3-lactam”: for the setting “late stage modification step, from compound 438A, trifluoroacetate”, the step yield is on record as 11% of theory. For “[3-tert-Butyl-D-alanyl]-[3-tert-butyl-L-alanyl]-[(3R)-3-amino-L-phenylalanyl]-[(3R)-3-hydroxy-L-leucyl]-L-leucyl-D-arginyl-L-isoleucyl-L-allothreonyl-D-alanyl-[(3S)-3-hydroxy-L-asparaginyl]-L-serine C^1.11-N^3.3-lactam bistrifluoroacetate”, the step yield under setting [2] is on record as 65% of theory. As for “[3-tert-Butyl-D-alanyl]-[3-tert-butyl-L-alanyl]-[(3R)-3-amino-L-phenylalanyl]-[(3R)-3-hydroxy-L-leucyl]-L-leucyl-D-arginyl-L-isoleucyl-L-allothreonyl-glycyl-[(2S)-2,4-diaminobutyryl]-L-serine C^1.11-N^3.3-lactam”, the step yield (late stage modification step, from compound 444A, trifluoroacetate) was 10% of theory. As for “[(3R)-N^2-(Benzyloxycarbonyl)-3-{(tert-butoxycarbonyl)amino}-L-phenylalanyl]-[(3R)-3-hydroxy-L-leucyl]-L-leucyl-D-arginyl-L-isoleucyl-L-allothreonyl-glycyl-L-threonyl-L-serine trifluoroacetate”, the step yield under setting [3] was 76% of theory. Still for that read-out and setting: for “{(3R)-N-[(Benzyloxy)carbonyl]-3-[(tert-butoxycarbonyl)amino]-4-(dimethylamino-phenyl)-L-alanyl}-[(3R)-3-hydroxy-L-leucyl]-L-leucyl-D-arginyl-L-isoleucyl-L-allothreonyl-glycyl-[(3S)-3-hydroxy-L-asparaginyl]-L-serine bistrifluoroacetate” the value was 92% of theory.

Regarding “[3-tert-Butyl-D-alanyl]-[3-tert-butyl-L-alanyl]-[(3R)-3-amino-L-phenylalanyl]-[(3R)-3-hydroxy-L-leucyl]-L-valyl-D-arginyl-L-isoleucyl-L-allothreonyl-glycyl-L-seryl-L-serine C^1.11-N^3.3-lactam”, for the setting “late stage modification step, from compound 447A, trifluoroacetate”, the step yield was 36% of theory.

The values are drawn from patent publication US8076285B2 (Aicuris GmbH & Co. KG, priority 2006, dated 2011).
